Reference: paper PMC7198492
Results are given in words; binding and its absence hold for the method and conditions named. In cells and extracts the contact can be indirect. Some binding calls cover weakened binding; strength is not graded here.

Protein sequences, listed by entry. Tags and fused reporters are not part of them.
UniProt Q14790: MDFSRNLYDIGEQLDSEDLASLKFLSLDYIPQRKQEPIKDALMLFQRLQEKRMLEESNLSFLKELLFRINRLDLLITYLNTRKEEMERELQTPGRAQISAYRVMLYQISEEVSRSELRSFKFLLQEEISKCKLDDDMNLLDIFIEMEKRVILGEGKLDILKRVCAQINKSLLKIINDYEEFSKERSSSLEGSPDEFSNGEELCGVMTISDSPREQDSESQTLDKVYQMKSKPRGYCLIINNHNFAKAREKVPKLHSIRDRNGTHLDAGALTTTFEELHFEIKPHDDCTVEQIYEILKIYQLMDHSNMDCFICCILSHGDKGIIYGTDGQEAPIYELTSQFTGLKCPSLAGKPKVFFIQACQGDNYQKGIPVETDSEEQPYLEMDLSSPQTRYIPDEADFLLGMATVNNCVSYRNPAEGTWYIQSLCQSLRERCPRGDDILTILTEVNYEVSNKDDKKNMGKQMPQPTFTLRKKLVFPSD
UniProt Q9Y572: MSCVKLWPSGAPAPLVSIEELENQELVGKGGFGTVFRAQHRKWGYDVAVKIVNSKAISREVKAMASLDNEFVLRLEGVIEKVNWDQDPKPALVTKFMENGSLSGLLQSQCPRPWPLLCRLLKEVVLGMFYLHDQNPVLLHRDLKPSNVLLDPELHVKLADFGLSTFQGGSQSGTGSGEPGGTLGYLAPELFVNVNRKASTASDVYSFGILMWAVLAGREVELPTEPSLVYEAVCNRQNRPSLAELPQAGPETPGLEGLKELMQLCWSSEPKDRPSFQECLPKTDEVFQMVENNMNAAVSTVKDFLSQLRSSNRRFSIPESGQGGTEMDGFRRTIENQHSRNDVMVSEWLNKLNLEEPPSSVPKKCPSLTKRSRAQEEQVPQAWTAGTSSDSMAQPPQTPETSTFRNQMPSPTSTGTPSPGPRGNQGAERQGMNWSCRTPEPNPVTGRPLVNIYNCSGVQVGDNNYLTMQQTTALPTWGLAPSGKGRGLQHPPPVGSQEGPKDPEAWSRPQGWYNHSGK
UniProt Q9QZL0: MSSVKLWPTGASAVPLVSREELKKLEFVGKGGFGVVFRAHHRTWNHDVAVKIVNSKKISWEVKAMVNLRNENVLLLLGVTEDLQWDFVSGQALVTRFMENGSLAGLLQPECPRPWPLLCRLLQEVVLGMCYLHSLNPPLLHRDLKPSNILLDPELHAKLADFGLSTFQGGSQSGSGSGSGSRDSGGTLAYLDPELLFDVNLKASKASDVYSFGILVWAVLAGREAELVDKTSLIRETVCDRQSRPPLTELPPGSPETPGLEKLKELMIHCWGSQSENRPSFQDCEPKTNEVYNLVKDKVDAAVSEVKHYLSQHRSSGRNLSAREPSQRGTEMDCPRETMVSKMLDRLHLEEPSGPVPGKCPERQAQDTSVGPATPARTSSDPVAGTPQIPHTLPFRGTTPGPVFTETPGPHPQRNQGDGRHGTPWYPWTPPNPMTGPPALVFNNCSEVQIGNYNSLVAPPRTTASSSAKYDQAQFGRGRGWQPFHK

Assays:
[1] = target: caspase-8 (human, endogenous in HT-29) (human (endogenous in HT-29)) (UniProt Q14790); assay: co-IP; whole-cell lysates of control and DAPK1-knockdown HT-29 cells treated with zVAD+BV6+TNF (anti-FADD IP) or zVAD+BV6 (anti-caspase-8 IP); Protein G Mag Sepharose, WCE buffer, overnight at 4 °C; Western blot
[2] = target: T1, caspase-8 (mouse, endogenous in BMDMs) (mouse (endogenous in BMDMs)) (UniProt O89110); assay: co-IP; whole-cell lysates of WT and Dapk1-/- mouse BMDMs treated with zVAD+AT-406; immunoprecipitated with anti-FADD or anti-caspase-8, Protein G Mag Sepharose, WCE buffer (25 mM HEPES pH 7.9, 300 mM NaCl, 0.1% Triton X-100), overnight at 4 °C; Western blot
T1 sequence: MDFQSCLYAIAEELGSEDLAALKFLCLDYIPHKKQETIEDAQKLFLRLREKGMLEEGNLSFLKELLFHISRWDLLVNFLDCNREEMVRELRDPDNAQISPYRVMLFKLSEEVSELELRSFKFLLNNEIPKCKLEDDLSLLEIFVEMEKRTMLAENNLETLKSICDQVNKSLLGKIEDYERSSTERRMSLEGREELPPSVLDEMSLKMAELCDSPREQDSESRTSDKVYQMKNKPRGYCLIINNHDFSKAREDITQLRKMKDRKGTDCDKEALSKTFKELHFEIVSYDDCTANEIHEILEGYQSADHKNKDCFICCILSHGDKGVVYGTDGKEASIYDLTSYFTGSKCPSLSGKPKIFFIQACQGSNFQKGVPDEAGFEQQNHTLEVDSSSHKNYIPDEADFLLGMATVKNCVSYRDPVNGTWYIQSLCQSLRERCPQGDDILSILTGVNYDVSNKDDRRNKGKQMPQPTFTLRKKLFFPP

binding [1]	binding [2]	Substance
binds		RIPK3 (human, endogenous in HT-29) (from UniProt Q9Y572 1-518)
	binds	RIPK3 (mouse, endogenous in BMDMs) (from UniProt Q9QZL0 1-486)
